Data published in patent US20060246071A1.
Where a chain is given by its changes, count along the chain named. No constants are given. Whether binding was seen depends on the method and setting. Binding calls can cover weak binding; strength is not graded here. Values belong to the binder of their own block, whether it stands above or below them.

Target: monkey Ang-2 (Cynomolgus macaque)
Assay: immunohistochemistry, monkey ovary sections

binding: binds
B1: mAb 5.28.1 (antibody, V domains shown)
VH: EVQLVESGGIVVQPGGSLRLSCAASGFTFDDYTMHWVRQTPGKGLEWVSLISWDGGSTYYADSVKGRFTISRDNSKNSLYLQMNSLRTEDTALYYCAKDIDIAVAGTGFDHWGQGTLVTVSS
VL: EIVMTQSPATLSVSPGERATLSCRASQSVTSNLAWYQQKPGQAPRLLIYGALIRATGIPARFSGSGSGTEFTLTISSLQSEDFAVYYCQQYNNWPFTFGPGTKVDIKR

binding: binds
B2: mAb 5.88.3 (antibody, V domains shown)
VH: EVQMVESGGGLVQPGGSLRLSCAASGFTLRSYWMSWVRQAPGKGLEWVANIKEDGSEKYHVDSVKGRFTISRDNAENSLFLQMSSLRAEDTAVYYCARDMEASAGLFDYWGQGTLVTVSS
VL: EIVMTQSPATLSVSPGERAILSCRASQSISSNLAWYQQKPGQAPRLLIYGASTRATGIPARFSGSGSGTEFTLTISSLQSEDFAVYYCQQYNYWWTFGQGTKVEIKR

binding: binds
B3: mAb 3.3.2 (antibody, V domains shown)
VH: EVQLVESGGGLVQPGGSLRLSCAVSGFTFSSYWMSWVRQAPGKGLEWVANIKQDGSEKYYVDSVKGRFTISRDNAKNSLYLQMNSLRAEDTAVYYCARDQGIAVAGPFDYWGQGTLVTVSS
VL: B2 VL with I20T, S28T, I29V, N32D, T53I, Y87S, N92Y, Y93N

binding: binds
B4: mAb 5.86.1 (antibody, V domains shown)
VH: QVQLVQSGAEVKKPGASVKVSCKASGYTFTGYHMYWVRQAPGQGLEWLGWINPNSGGTNYAQKFQGRVTMTRDTSISTAYMELSRLRSDDTAVYYCVRDQGIAAAGPFDYWCQGTLVTVSS
VL: DIRMTQSPSSLSASVGDRVTITCRASQRISTYLNWYQQKPGKAPKFLIYAASSLQSGVPSRFSGSGSGTDFTLTISSLQPEDFATYYCQQSYTTPFTFGPGTKVDIKR
